The test addresses wild-type TSC2 protein (Homo sapiens (Human)) (UniProt P49815). The experiment in a line: co-immunoprecipitation from transfected HEK293T cells, immunoblot. Background: Immunoblotting shows a protein as a band on a membrane.

Protein sequences, listed by entry. Tags and fused reporters are not part of them. Lines headed by an entry give the natural chain unless they say otherwise; changes in a name come on top.
UniProt P49815: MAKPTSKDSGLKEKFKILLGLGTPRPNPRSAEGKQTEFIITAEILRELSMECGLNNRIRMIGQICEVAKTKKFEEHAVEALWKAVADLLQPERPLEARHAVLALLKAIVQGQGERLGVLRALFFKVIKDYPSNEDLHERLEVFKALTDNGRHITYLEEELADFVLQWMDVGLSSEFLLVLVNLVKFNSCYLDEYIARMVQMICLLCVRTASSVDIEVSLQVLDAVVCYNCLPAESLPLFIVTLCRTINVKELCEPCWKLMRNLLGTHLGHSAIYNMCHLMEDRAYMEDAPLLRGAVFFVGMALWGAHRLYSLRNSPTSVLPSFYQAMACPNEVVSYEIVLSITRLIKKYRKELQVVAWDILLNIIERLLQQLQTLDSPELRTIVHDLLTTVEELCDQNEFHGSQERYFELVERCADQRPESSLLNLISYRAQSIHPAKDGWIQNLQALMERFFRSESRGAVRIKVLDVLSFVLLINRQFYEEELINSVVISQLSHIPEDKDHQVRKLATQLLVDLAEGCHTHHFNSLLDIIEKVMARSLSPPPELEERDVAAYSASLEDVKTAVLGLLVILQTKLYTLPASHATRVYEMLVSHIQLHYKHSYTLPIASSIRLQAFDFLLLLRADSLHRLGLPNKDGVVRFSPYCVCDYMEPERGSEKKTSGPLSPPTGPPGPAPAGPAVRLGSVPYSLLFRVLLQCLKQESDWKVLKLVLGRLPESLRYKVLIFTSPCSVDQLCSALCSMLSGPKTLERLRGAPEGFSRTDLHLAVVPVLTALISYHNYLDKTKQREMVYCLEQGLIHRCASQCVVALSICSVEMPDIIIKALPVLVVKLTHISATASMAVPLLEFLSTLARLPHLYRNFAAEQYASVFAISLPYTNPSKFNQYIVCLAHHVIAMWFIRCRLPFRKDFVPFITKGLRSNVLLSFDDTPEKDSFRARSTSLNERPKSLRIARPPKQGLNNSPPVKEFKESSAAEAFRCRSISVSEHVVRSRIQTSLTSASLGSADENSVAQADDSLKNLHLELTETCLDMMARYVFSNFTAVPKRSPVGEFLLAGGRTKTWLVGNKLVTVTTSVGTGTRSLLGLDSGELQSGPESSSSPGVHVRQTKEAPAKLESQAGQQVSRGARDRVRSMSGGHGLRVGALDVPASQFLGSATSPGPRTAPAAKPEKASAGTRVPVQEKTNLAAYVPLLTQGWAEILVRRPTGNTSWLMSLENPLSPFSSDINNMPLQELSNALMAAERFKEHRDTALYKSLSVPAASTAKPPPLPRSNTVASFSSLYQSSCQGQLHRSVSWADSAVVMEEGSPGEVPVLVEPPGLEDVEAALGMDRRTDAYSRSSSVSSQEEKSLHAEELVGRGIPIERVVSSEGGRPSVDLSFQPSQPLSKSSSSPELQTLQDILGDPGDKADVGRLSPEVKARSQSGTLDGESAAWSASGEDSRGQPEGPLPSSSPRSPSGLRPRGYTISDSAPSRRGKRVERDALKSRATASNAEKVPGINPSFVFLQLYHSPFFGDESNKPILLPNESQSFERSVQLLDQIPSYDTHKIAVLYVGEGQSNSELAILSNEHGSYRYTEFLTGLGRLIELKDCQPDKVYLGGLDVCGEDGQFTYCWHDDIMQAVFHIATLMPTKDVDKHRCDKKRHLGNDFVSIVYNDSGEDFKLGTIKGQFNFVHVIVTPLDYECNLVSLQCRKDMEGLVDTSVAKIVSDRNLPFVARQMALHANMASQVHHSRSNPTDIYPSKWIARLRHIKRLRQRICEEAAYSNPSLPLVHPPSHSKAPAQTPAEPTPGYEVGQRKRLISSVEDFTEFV

No constants are given. Whether binding was seen depends on the method and setting. Binding seen in cells or lysates may run through a third protein. Some binding calls cover weakened binding; strength is not graded here.

B1: wild-type TSC1 protein (protein)
chain: MAQQANVGELLAMLDSPMLGVRDDVTAVFKENLNSDRGPMLVNTLVDYYLETSSQPALHILTTLQEPHDKHLLDRINEYVGKAATRLSILSLLGHVIRLQPSWKHKLSQAPLLPSLLKCLKMDTDVVVLTTGVLVLITMLPMIPQSGKQHLLDFFDIFGRLSSWCLKKPGHVAEVYLVHLHASVYALFHRLYGMYPCNFVSFLRSHYSMKENLETFEEVVKPMMEHVRIHPELVTGSKDHELDPRRWKRLETHDVVIECAKISLDPTEASYEDGYSVSHQISARFPHRSADVTTSPYADTQNSYGCATSTPYSTSRLMLLNMPGQLPQTLSSPSTRLITEPPQATLWSPSMVCGMTTPPTSPGNVPPDLSHPYSKVFGTTAGGKGTPLGTPATSPPPAPLCHSDDYVHISLPQATVTPPRKEERMDSARPCLHRQHHLLNDRGSEEPPGSKGSVTLSDLPGFLGDLASEEDSIEKDKEEAAISRELSEITTAEAEPVVPRGGFDSPFYRDSLPGSQRKTHSAASSSQGASVNPEPLHSSLDKLGPDTPKQAFTPIDLPCGSADESPAGDRECQTSLETSIFTPSPCKIPPPTRVGFGSGQPPPYDHLFEVALPKTAHHFVIRKTEELLKKAKGNTEEDGVPSTSPMEVLDRLIQQGADAHSKELNKLPLPSKSVDWTHFGGSPPSDEIRTLRDQLLLLHNQLLYERFKRQQHALRNRRLLRKVIKAAALEEHNAAMKDQLKLQEKDIQMWKVSLQKEQARYNQLQEQRDTMVTKLHSQIRQLQHDREEFYNQSQELQTKLEDCRNMIAELRIELKKANNKVCHTELLLSQVSQKLSNSESVQQQMEFLNRQLLVLGEVNELYLEQLQNKHSDTTKEVEMMKAAYRKELEKNRSHVLQQTQRLDTSQKRILELESHLAKKDHLLLEQKKYLEDVKLQARGQLQAAESRYEAQKRITQVFELEILDLYGRLEKDGLLKKLEEEKAEAAEAAEERLDCCNDGCSDSMVGHNEEASGHNGETKTPRPSSARGSSGSRGGGGSSSSSSELSTPEKPPHQRAGPFSSRWETTMGEASASIPTTVGSLPSSKSFLGMKARELFRNKSESQCDEDGMTSSLSESLKTELGKDLGVEAKIPLNLDGPHPSPPTPDSVGQLHIMDYNETHHEHS
With B1, the binding result is “binds”.

(Values after patent US20180214452A1.)
